Results published in PubChem BioAssay AID330 (DTP/NCI, 2004).
The list does not hold the whole screen: it is rich in T/C values a quarter to a half above the control, in often repeated tests (any T/C) and in doses without a T/C. Further doses and runs are listed elsewhere. T/C: endpoint of the treated group in % of that of the vehicle group. Some entries give survivors of the animals treated and no T/C: the source files T/C as zero there, which appears to mark a toxic dose or a test without result, not a measured value. Counts of survivors are from the toxicity check (mostly the fifth day) where no day follows; animals may have died later. Schedule codes are those of the source, read here as Q, the interval in days (D) or hours (H), X, the number of doses. Where survival is the endpoint, this PubChem deposit counts one and a half times the control or more as active, and values a quarter to a half above the control carry no call in these data; other NCI protocols may use other cut-offs.

Test system: P388 leukemia ip, CD2F1 mice, survival T/C
Assay: NCI In Vivo Anticancer Drug Screen. Data for tumor model P388 Leukemia (intraperitoneal) in CD2F1 (CDF1) mice
Settings: T/C endpoint: median survival time, schedule: Q01DX009 (ip), vehicle: Klucel (hydroxypropylcellulose) (HPC), higher T/C = longer survival; for T/C: dose: 5.0 mg/kg/injection

COc1cc(C(=O)NC2CCc3cc(OC)c(OC)c(OC)c3-c3ccc(OC)c(=O)cc32)cc(OC)c1OC (centres undefined)
T/C (evaluated on day 30): 144 % of control
T/C (evaluated on day 35): 128 % of control
survivor count (dose: 40.0 mg/kg/injection): 3 of 6
survivor count (dose: 80.0 mg/kg/injection): 0 of 6
